Test results published in the GenesisPotency data set.
Out of some 73,000 compounds screened, about 1,800 (2.5%) were called active. Roughly 13% stayed inconclusive and do not appear here. The call rests on the fitted dose curve; in most records, active means well fitted activation curve with a large enough effect; inconclusive means small, poorly fitted or top-dose-only effect; inactive means no such curve, though single readings can be large or run the other way. Some of the results follow.

test: qHTS Assay for Agonists of the Thyroid Stimulating Hormone Receptor: Activators of Intracellular cAMP Concentrations in Parental HEK 293

SMILES	outcome
CNC(=O)N(c1ccccc1)c1ccccc1	inactive
Cc1nnc(NS(=O)(=O)c2ccc(N)cc2)s1	inactive
